# This is one part of the list. These are raw signals, not scaled to a control.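 First-pass screen: polymyxin B was added at a level that permeabilizes the Salmonella outer membrane while sparing the inner membrane. DMSO wells, with and without polymyxin B, defined maximum growth. Because plates differed from one another, each plate's data were ranked separately and the compounds with the lowest OD600 were carried forward as hits.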
# Test system: Salmonella enterica serovar Typhimurium SL1344
# Assay: bacterial growth OD600 after 18 h with compound and polymyxin B; higher = more bacterial growth (less inhibition)
# Details: 50 µM, Mueller-Hinton broth
SMILES,bacterial growth OD600 (polymyxin B 0.75 µg/mL),bacterial growth OD600 (polymyxin B 1 µg/mL)
O=C1CCCCN1CC(=O)N1CCCC(CCc2ccc(F)c(F)c2)C1 (centres undefined),0.849,–
O=C(NCc1cccc(OC(F)(F)F)c1)C1CC(Cc2cccc(F)c2)=NO1 (centres undefined),0.752,–
COC(=O)CC(NC1CCN(c2ccc(NC(=O)Cc3cccc(Cl)c3)cc2)CC1)C(=O)OC (centres undefined),0.823,–
O=C(NC1CCCc2nc(-c3cccnc3)ncc21)C1CCC1 (centres undefined),0.848,–
COc1ccc(CN2CC[C@@H](N3CCCCCC3)[C@H](O)C2)c(OC)c1OC,0.86,–
O=C(Nc1ccnn1C1CCN(Cc2cccc(-c3ccco3)c2)CC1)C1CC1,–,0.87
Cc1cc(F)ccc1NC(=O)CCC1CCCN(C(=O)C(=O)c2ccco2)C1 (centres undefined),–,1.09
Cc1cccc(CN(CCN2CCCCC2)CC2CCCN(C3CCCC3)C2)n1 (centres undefined),0.879,–
O=C1CC(NCc2ccccc2Cn2cccn2)CN1Cc1ccc(F)cc1 (centres undefined),–,0.923
